± gives the standard deviation of the averaged measurements. The entries are a selection whose mix differs from that of the whole data set.

Protein sequences, listed by entry. Tags and fused reporters are not part of them. Lines headed by an entry give the natural chain unless they say otherwise; changes in a name come on top.
UniProt Q13257, whole entry: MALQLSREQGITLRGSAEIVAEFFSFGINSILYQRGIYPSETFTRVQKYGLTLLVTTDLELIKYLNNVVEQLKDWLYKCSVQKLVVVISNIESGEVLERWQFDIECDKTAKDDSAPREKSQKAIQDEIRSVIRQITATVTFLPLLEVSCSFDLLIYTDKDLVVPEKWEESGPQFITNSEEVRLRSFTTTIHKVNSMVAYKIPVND
UniProt Q13423: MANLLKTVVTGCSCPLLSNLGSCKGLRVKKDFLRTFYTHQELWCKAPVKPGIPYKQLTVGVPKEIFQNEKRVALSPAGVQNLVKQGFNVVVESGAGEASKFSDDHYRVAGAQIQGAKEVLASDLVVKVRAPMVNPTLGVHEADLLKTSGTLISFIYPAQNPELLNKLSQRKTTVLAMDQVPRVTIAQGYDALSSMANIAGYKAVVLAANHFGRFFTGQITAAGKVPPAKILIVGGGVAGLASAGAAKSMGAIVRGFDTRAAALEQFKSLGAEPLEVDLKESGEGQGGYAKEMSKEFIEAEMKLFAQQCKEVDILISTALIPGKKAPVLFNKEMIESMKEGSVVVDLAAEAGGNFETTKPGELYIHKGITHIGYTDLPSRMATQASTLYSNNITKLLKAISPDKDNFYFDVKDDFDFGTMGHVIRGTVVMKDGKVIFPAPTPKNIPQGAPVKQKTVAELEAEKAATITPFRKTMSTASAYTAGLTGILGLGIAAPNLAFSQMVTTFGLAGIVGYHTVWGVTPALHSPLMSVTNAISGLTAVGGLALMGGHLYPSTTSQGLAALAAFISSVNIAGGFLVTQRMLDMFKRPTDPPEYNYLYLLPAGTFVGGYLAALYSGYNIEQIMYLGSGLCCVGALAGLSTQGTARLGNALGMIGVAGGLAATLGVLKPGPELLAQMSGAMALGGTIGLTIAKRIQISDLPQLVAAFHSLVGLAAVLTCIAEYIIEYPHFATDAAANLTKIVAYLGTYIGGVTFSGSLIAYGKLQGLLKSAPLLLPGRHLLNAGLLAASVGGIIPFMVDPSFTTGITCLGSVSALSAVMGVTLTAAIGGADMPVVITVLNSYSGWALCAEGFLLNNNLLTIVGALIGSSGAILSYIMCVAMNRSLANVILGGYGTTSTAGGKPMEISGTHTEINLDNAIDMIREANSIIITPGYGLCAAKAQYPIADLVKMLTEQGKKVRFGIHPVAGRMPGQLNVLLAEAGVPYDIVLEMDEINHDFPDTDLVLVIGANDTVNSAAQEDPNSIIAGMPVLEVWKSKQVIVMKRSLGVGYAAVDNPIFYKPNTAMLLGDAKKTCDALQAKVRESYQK
UniProt Q14691: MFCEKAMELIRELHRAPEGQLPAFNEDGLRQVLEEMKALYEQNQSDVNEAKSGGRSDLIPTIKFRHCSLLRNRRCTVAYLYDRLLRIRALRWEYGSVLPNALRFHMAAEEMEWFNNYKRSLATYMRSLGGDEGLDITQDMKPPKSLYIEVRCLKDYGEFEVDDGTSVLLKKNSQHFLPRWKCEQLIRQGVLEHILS
UniProt Q13303: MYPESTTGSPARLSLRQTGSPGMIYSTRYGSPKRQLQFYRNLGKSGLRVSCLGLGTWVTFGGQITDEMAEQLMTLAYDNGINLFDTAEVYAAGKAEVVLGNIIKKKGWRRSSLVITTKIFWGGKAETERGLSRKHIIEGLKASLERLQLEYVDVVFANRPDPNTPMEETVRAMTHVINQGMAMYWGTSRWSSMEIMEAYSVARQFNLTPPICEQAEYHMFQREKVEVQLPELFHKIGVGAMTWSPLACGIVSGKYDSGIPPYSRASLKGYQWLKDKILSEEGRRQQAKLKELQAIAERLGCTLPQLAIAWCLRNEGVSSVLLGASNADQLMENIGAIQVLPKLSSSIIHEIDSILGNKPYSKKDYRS
UniProt Q13045: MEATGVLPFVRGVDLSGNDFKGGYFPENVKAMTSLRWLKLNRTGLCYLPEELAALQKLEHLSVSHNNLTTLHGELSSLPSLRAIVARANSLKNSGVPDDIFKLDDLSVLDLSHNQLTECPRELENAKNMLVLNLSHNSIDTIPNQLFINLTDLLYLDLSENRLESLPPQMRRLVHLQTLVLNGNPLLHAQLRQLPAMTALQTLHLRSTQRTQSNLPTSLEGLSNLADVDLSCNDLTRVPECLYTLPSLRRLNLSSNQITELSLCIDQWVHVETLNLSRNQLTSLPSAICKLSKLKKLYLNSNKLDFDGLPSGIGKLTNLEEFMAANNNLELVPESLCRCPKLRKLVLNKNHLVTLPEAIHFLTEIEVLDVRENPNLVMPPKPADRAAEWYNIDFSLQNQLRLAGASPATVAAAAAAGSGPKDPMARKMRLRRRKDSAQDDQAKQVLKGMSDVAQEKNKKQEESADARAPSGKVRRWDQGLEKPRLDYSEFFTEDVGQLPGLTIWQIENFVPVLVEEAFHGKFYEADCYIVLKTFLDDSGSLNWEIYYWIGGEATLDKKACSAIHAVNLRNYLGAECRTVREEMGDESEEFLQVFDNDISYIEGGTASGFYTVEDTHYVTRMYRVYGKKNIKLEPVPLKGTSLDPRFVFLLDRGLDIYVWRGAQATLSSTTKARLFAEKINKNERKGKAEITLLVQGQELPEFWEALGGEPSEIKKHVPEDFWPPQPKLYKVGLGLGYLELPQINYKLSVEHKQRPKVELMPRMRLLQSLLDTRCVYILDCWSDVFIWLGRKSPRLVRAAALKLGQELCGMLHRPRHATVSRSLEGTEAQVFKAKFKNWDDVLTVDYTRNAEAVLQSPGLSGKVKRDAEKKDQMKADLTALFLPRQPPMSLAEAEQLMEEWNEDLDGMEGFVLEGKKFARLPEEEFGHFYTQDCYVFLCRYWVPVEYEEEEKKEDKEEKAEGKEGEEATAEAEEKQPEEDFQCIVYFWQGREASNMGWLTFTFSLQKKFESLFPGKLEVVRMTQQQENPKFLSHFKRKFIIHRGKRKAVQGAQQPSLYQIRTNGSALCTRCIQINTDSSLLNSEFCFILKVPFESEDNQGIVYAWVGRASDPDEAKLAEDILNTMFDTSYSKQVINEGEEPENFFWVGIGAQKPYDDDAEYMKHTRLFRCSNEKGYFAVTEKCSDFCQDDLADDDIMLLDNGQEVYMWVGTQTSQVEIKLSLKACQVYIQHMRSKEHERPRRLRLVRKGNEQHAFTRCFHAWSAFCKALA
UniProt Q14693: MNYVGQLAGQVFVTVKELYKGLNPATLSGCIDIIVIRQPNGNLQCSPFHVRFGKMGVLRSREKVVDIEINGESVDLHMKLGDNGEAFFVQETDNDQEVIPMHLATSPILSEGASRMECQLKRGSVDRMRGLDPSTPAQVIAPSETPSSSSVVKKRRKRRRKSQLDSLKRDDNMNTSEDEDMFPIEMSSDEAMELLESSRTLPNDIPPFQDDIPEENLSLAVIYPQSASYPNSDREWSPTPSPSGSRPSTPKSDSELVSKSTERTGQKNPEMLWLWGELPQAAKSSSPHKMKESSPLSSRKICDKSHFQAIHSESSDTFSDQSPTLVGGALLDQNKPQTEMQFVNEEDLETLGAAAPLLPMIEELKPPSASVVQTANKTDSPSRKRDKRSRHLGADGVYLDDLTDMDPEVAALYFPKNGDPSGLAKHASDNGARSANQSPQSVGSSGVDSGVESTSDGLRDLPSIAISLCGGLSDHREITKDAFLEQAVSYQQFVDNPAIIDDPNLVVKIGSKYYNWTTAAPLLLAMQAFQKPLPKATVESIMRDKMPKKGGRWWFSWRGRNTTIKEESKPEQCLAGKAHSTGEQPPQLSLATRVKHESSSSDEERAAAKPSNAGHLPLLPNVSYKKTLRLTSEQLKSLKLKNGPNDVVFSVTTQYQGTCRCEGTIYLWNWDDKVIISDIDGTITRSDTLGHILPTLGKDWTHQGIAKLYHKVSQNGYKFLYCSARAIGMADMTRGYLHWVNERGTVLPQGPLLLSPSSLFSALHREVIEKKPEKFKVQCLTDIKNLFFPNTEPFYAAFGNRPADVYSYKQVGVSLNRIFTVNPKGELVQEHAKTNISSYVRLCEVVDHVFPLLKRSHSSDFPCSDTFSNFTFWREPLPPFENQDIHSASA
UniProt Q12972: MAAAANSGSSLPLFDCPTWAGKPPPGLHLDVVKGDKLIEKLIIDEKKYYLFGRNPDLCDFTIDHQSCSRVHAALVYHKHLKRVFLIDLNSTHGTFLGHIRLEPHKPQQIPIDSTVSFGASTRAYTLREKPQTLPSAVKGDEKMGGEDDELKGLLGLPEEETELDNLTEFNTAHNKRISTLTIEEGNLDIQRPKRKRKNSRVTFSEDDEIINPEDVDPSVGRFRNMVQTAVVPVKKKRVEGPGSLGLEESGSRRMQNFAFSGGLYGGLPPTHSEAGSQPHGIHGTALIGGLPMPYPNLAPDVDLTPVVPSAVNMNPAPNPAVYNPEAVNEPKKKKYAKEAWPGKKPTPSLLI
UniProt Q13310, whole entry: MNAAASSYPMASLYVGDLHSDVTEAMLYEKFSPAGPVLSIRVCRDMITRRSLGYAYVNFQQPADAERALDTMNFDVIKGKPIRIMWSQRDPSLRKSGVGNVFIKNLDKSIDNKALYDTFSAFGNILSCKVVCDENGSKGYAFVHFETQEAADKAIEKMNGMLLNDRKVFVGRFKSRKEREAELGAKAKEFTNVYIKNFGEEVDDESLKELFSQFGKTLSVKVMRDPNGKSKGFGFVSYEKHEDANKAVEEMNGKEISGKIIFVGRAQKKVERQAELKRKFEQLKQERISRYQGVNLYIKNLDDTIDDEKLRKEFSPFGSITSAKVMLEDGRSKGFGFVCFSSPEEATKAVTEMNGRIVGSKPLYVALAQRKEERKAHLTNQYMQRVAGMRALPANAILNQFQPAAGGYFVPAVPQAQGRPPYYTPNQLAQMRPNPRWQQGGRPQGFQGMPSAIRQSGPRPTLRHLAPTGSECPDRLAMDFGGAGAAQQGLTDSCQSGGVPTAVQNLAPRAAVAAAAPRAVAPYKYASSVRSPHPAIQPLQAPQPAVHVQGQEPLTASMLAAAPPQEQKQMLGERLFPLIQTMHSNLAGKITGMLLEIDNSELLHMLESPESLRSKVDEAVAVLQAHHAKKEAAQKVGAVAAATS
UniProt Q14232, whole entry: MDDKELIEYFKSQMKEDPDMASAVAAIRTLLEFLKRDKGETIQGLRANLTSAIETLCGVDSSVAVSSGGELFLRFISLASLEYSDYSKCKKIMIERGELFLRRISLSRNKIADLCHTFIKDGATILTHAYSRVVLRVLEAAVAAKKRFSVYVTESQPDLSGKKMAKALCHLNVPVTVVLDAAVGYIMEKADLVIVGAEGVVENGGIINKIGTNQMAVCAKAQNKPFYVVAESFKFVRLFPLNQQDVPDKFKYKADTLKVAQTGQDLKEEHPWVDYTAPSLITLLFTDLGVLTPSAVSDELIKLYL
UniProt Q14865: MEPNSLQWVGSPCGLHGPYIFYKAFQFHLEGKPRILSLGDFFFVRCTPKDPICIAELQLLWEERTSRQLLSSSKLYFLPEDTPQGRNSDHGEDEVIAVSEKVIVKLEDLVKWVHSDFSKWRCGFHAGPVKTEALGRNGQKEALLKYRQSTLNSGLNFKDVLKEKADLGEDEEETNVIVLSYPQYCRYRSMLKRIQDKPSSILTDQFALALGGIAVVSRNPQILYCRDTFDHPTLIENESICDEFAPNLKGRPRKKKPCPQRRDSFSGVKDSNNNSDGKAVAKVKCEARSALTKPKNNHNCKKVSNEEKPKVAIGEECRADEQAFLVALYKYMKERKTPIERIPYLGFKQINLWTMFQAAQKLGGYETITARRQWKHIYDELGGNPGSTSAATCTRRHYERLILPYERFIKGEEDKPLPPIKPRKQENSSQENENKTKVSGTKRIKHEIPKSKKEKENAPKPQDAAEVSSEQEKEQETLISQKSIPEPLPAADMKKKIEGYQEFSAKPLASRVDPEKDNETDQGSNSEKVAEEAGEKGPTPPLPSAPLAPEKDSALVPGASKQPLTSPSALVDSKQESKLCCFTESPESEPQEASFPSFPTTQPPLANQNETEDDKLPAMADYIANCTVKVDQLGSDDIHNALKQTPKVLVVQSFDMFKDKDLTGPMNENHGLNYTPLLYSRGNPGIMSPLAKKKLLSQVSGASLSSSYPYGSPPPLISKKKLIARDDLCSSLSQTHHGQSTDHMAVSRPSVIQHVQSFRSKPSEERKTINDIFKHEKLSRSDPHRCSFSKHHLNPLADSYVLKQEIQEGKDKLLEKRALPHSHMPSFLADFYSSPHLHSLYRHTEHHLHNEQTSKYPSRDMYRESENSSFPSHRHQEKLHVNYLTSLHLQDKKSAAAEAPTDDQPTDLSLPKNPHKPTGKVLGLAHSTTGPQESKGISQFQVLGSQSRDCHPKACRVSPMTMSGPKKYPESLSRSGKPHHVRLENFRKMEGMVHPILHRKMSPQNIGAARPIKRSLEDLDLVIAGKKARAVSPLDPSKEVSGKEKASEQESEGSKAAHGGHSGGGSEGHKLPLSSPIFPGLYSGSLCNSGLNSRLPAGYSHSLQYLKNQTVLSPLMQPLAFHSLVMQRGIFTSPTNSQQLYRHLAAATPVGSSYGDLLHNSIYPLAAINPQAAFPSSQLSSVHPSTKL

The record followed here is the supplement of paper PMC6411743.

Compound in the experiment: Nc1ncnc2c1ncn2[C@@H]1O[C@H](COP(=O)(O)OP(=O)(O)NP(=O)(O)O)[C@@H](O)[C@H]1O [adenylyl imidodiphosphate]
Briefly: NP40-soluble protein abundance relative to vehicle (solubility fold change) (ratio); higher = more soluble protein in presence of AMP-PNP. To be noted: concentration: 6mM. The procedure, abridged:
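Jurkat crude lysate (Dounce-homogenised) was treated with eight concentrations from 0.1 to 10 mM for 10 min at room temperature, then 3 min at 37 °C. It was solubilised with 0.8% NP40 and benzonase (60 min, 4 °C) and ultracentrifuged, and the supernatant was TMT-labelled for LC-MS/MS. Intensities were vsn-normalised, and the value is the fold change against the NP40-processed vehicle per replicate, from three independent experiments.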
As to UniProt Q13164, the NP40-soluble protein abundance came out at 0.993 ± 0.019.
For the target MAD2L1 (UniProt Q13257), the NP40-soluble protein abundance is 0.999 ± 0.096.
The same measure for PIN1 (UniProt Q13526): 1.06 ± 0.031; for NNT (UniProt Q13423): 0.946 ± 0.018; for EXOSC2 (UniProt Q13868): 1.11 ± 0.073.
As to GINS1 (UniProt Q14691), the NP40-soluble protein abundance turned out to be 0.991 ± 0.022.
As for UniProt Q08J23 and related entries, the NP40-soluble protein abundance amounted to 1.13 ± 0.043.
The same measure for UniProt Q13951 and related entries: 1.03 ± 0.036; for UniProt Q13303 and related entries: 1.03 ± 0.089.
For UniProt Q13045 and related entries the value was 1 ± 0.021; for “UniProt Q13428-3|Q13428-7|E7ETY2 and related entries”, 1.25 ± 0.12.
Consider TMEM115 (UniProt Q12893), for which the NP40-soluble protein abundance worked out at 0.986 ± 0.025.
For the target UniProt Q14693 and related entries, the NP40-soluble protein abundance turned out to be 1.01 ± 0.062.
The same measure for DAG1 (UniProt Q14118): 1.04 ± 0.048.
With UniProt Q13029 and related entries, the NP40-soluble protein abundance was 0.996 ± 0.041.
The same measure for SREBF2 (UniProt Q12772): 0.984 ± 0.029; for UniProt Q15084 and related entries: 0.951 ± 0.032; for UniProt Q13884 and related entries: 1.01 ± 0.039.
For the target TFDP2 (UniProt Q14188), the NP40-soluble protein abundance was 1.015 ± 0.01.
In the case of UniProt Q13308 and related entries, the NP40-soluble protein abundance was 1.04 ± 0.041.
The same measure for UniProt Q13459 and related entries: 1.02 ± 0.092; for BLMH (UniProt Q13867): 0.933 ± 0.041.
In the case of PDAP1 (UniProt Q13442), the NP40-soluble protein abundance amounted to 1.26 ± 0.093.
In the case of UniProt Q13740 and related entries, the NP40-soluble protein abundance stood at 1.02 ± 0.013.
On to PPP1R8 (UniProt Q12972), for which the NP40-soluble protein abundance came out at 1.005 ± 0.0068.
For UniProt Q15046 the value was 0.918 ± 0.13.
In the case of BYSL (UniProt Q13895), the NP40-soluble protein abundance is 1.01 ± 0.025.
Regarding UniProt Q12769 and related entries, the NP40-soluble protein abundance worked out at 0.9621 ± 0.0016.
For UniProt Q15067-2|Q15067 the value was 1.09 ± 0.071; for UniProt Q13825 and related entries, 1.03 ± 0.015; for UniProt Q13310-3|Q13310, 1.07 ± 0.052.
For EIF2B1 (UniProt Q14232) the value was 1.06 ± 0.1.
The same measure for UniProt Q14865: 0.964 ± 0.075.
On to COTL1 (UniProt Q14019), for which the NP40-soluble protein abundance was determined as 1.02 ± 0.049.
For DDX10 (UniProt Q13206) the value was 0.981 ± 0.034; for UniProt Q13627 and related entries, 0.994 ± 0.016.
